The assay has as its target INCENP a.a. 491-873 (coiled-coil domain and INBox) (Xenopus laevis) (UniProt O13024). The assay is described as follows: tandem affinity co-purification (Ni-NTA, then Strep-Tactin); INCENP 491-873 and Aurora-B co-expressed in E. coli; first pulled by the His tag on the INBox construct, then by the Strep-tag II on Aurora-B; read by SDS-PAGE.

The chains behind the UniProt entries cited, without tags or fusion partners. Residues count along the entry.
UniProt O13024, residues 491-873: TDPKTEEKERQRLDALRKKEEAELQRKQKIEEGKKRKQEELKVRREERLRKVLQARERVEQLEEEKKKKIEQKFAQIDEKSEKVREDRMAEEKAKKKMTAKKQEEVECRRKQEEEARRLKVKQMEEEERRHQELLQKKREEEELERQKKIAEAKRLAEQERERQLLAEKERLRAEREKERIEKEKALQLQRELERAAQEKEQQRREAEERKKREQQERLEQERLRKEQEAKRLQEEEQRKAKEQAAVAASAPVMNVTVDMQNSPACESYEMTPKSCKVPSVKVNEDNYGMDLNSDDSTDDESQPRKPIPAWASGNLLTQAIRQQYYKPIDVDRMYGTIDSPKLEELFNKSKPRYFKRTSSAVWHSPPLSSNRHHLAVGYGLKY
UniProt Q6DE08: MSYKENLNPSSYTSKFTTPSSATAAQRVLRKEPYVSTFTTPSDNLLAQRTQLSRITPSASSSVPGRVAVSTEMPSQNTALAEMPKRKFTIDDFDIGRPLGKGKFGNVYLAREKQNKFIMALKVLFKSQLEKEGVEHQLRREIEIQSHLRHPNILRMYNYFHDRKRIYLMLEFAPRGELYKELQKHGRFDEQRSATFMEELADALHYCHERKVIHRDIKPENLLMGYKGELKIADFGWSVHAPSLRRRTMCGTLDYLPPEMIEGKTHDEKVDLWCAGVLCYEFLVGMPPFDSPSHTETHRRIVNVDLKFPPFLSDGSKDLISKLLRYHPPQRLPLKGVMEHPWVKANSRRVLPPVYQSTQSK

No constants are given. Whether binding was seen depends on the method and setting. Some results given as binding are weak or reduced against the parent protein; the word gives no strength.

For the substance “Aurora-B-GFP (from UniProt Q6DE08 1-361) (enzyme)”, the binding entry is “binds”.

Source of the values: PMC3912212.
